Results on eight molecules are retold here after PMC10897310.

By UniProt entry, the sequences of proteins in these tests, tags left out.
UniProt Q8R4B8: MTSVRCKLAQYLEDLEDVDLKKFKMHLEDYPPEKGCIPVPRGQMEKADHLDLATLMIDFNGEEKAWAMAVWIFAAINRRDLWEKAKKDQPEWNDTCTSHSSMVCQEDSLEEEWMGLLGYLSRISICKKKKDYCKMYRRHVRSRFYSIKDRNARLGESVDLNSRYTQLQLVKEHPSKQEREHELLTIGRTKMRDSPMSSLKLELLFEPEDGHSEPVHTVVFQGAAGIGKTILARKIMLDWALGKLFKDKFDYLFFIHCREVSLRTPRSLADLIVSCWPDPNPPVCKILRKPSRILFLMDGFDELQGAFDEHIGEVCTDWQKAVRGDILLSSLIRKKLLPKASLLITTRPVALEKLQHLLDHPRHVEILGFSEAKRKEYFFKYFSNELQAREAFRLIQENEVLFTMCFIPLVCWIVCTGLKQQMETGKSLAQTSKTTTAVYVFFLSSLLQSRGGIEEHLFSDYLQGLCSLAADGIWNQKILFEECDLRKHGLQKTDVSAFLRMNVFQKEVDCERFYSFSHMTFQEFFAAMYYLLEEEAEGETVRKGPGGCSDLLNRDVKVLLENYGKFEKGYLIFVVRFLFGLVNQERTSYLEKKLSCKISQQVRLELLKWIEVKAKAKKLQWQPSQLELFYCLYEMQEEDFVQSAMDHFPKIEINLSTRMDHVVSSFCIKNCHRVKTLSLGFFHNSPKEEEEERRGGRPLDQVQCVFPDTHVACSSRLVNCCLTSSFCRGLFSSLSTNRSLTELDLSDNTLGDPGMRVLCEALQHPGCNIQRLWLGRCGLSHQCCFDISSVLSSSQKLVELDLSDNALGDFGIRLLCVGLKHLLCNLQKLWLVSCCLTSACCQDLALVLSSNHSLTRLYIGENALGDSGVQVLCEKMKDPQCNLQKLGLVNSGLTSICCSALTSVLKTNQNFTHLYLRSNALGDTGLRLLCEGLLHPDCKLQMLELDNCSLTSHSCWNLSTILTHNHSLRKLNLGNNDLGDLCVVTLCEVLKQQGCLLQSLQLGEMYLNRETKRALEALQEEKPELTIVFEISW
UniProt Q7Z434: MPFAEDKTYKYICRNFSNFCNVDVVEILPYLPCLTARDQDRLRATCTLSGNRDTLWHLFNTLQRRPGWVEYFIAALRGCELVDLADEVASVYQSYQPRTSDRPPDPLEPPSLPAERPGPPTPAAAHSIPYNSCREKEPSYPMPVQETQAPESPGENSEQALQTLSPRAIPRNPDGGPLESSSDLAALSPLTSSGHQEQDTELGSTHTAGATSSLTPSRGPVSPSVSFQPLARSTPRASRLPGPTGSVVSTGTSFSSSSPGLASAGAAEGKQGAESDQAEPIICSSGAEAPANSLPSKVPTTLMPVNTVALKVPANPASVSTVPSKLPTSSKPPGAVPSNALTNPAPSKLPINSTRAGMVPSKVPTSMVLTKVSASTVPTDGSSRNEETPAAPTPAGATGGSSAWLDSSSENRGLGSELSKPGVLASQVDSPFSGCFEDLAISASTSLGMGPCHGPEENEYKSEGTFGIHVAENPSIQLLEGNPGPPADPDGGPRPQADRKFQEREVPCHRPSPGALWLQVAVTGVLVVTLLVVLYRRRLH

No constants are given. Whether binding was seen depends on the method and setting. In cells and extracts the contact can be indirect. Some entries that bind do so weakly or less than the wild type. For some assays here: Where a sequence is shown, tags or fusion partners need not be part of it.

Assay [1] addresses T1, MAVS, endogenous in NMCMs (mouse (endogenous in NMCMs)) (UniProt Q8VCF0).
T1 sequence: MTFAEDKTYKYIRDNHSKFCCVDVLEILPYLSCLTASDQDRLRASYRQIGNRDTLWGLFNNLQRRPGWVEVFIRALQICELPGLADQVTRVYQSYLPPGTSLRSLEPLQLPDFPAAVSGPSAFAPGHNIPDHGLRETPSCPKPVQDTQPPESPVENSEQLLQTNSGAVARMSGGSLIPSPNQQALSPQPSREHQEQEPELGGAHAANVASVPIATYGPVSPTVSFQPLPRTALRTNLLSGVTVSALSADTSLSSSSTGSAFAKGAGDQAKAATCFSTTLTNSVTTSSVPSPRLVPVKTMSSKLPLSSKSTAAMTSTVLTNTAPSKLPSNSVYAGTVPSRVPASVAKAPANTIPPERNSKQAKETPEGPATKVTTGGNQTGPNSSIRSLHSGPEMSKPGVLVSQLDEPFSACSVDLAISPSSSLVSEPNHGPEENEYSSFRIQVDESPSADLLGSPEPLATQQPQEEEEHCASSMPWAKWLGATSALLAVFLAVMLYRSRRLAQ
The assay is described as follows: co-IP; NLRP3 and MAVS in NMCMs with or without PGAM5 knockdown under MCM + H/R treatment.

Assay [2] deals with T2, HA-PGAM5 in HL-1 cardiomyocytes (human) (UniProt Q96HS1).
T2 sequence: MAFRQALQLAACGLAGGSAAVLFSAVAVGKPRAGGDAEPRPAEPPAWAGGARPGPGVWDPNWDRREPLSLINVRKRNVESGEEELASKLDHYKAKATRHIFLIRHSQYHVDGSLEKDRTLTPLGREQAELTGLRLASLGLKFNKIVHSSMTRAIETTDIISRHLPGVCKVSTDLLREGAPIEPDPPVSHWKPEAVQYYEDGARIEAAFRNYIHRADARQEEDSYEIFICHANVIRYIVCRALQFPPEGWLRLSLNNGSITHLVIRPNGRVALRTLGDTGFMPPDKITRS
The assay is described as follows: co-IP; HL-1 cardiomyocytes expressing Flag-tagged MAVS and HA-PGAM5; HA-PGAM5 immune complexes blotted for Flag-MAVS.

For assay [3], the target named is T3, mitochondrial anti-viral-signaling protein (MAVS), endogenous in HL-1 cardiomyocytes (mouse (endogenous in HL-1)) (UniProt Q8VCF0).
T3 sequence: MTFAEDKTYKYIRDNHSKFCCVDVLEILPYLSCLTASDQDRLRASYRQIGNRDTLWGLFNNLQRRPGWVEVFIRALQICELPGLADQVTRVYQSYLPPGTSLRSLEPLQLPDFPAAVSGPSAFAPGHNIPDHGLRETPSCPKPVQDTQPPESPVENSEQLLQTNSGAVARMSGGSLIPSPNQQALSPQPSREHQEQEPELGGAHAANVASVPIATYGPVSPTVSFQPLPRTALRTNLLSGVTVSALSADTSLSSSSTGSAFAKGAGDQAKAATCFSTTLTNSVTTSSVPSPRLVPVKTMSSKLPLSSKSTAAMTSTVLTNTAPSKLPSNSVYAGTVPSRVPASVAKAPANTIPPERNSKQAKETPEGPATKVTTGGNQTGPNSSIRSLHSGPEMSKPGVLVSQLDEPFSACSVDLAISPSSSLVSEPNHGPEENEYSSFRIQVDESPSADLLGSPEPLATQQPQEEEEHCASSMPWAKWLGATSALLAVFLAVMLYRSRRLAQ
The assay is described as follows: co-IP; NLRP3 and MAVS in HL-1 cardiomyocytes in the presence or absence of si-PGAM5 under MCM + H/R treatment.

The target of assay [4] is T4, PGAM5, endogenous in NMCMs (mouse (endogenous in NMCMs)) (UniProt Q8BX10).
T4 sequence: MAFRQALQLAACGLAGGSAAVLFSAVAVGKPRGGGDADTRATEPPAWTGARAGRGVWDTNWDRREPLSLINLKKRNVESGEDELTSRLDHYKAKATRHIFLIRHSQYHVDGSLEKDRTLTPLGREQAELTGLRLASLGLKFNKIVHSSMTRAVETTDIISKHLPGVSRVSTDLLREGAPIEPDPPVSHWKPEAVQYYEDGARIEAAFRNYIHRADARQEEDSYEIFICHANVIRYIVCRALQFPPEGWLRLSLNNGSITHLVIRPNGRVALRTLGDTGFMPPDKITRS
The assay is described as follows: co-IP; endogenous MARCH2 and PGAM5 in NMCMs; control IgG; NP-40 lysis buffer.

Assay [5] has as its target T5, PGAM5, endogenous in HL-1 cardiomyocytes (mouse (endogenous in HL-1)) (UniProt Q8BX10).
T5 sequence: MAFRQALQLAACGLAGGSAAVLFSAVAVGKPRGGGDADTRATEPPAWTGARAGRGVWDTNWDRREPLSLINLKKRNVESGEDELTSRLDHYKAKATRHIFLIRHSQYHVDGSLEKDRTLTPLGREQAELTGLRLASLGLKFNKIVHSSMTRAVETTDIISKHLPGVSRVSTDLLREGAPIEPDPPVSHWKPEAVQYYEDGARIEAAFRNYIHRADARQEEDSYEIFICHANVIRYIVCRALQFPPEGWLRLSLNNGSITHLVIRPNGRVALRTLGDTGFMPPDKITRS
The assay is described as follows: co-IP; endogenous PGAM5 and MAVS in HL-1 cardiomyocytes with or without MCM + H/R treatment.

The target in assay [6] is T6, PGAM5, endogenous (cells of Supplementary Fig. S11a not named) (UniProt Q8BX10).
T6 sequence: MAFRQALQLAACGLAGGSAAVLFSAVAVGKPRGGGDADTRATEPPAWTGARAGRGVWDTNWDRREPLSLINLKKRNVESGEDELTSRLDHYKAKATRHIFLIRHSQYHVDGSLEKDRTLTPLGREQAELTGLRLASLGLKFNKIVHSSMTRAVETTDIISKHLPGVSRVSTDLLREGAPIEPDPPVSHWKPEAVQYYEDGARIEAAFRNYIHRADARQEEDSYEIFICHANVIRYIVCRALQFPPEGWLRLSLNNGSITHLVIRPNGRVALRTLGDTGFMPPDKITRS
The assay is described as follows: co-IP; endogenous proteins, IP with anti-PGAM5 or scramble IgG; cells not named.

Assay [7] addresses T4, PGAM5, endogenous in NMCMs (mouse (endogenous in NMCMs)). The assay is described as follows: co-IP; endogenous PGAM5 and MAVS in NMCMs with or without MCM + H/R treatment.
Assay [8] addresses T7, HA-tagged PGAM5 in NMCMs (human) (UniProt Q96HS1).
T7 sequence: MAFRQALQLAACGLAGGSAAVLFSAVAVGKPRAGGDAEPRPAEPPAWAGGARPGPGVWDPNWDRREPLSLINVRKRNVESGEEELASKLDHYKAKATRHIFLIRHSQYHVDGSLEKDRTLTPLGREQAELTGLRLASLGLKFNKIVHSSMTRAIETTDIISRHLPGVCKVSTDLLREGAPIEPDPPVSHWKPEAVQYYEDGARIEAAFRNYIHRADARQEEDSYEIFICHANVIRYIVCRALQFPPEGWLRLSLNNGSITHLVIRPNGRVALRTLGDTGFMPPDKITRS
The assay is described as follows: co-IP; NMCMs transfected with PGAM5-HA or control vector along with MARCH2-Flag; IP with anti-HA, blots with anti-Flag and anti-HA; NP-40 lysis buffer, protein A/G agarose, 4 °C.

With “NLRP3, endogenous in NMCMs (from UniProt Q8R4B8 1-1033)”, the binding result in assay [1] is given as “binds”.

As for “Flag-tagged MAVS in HL-1 cardiomyocytes (from UniProt Q7Z434 1-540)”, the binding entry in assay [2] is reported as “binds”.

“NLRP3, endogenous in HL-1 cardiomyocytes (from UniProt Q8R4B8 1-1033)”: in assay [3], the binding result is recorded as “binds”.

B1: MARCH2, endogenous in NMCMs (enzyme, UniProt Q99M02 1-246)
chain: MTTGDCCHLPGSLCDCSSSPAFSKVVEATGLGPPQYVAQVTSRDGRLLSTVIRALDSQSDCPFCRICHEGANGENLLSPCGCTGTLGAVHKSCLEKWLSSSNTSYCELCHTEFAVEKRPRPLTEWLKDPGPRTEKRTLCCDMVCFVFITPLAAISGWLCLRGAQDHLRLHSRLEAVGLIALTIALFTIYVLWTLVSFRYHCQLYSEWRKTNQKVRLKIREADGSEDPHHSLLATGLLKKVAEETPV
As for B1, in assay [4], the binding entry is “binds”.

B2: mitochondrial anti-viral-signaling protein (MAVS), endogenous in HL-1 cardiomyocytes (protein, UniProt Q8VCF0 1-503)
chain: MTFAEDKTYKYIRDNHSKFCCVDVLEILPYLSCLTASDQDRLRASYRQIGNRDTLWGLFNNLQRRPGWVEVFIRALQICELPGLADQVTRVYQSYLPPGTSLRSLEPLQLPDFPAAVSGPSAFAPGHNIPDHGLRETPSCPKPVQDTQPPESPVENSEQLLQTNSGAVARMSGGSLIPSPNQQALSPQPSREHQEQEPELGGAHAANVASVPIATYGPVSPTVSFQPLPRTALRTNLLSGVTVSALSADTSLSSSSTGSAFAKGAGDQAKAATCFSTTLTNSVTTSSVPSPRLVPVKTMSSKLPLSSKSTAAMTSTVLTNTAPSKLPSNSVYAGTVPSRVPASVAKAPANTIPPERNSKQAKETPEGPATKVTTGGNQTGPNSSIRSLHSGPEMSKPGVLVSQLDEPFSACSVDLAISPSSSLVSEPNHGPEENEYSSFRIQVDESPSADLLGSPEPLATQQPQEEEEHCASSMPWAKWLGATSALLAVFLAVMLYRSRRLAQ
Take B2: the binding result in assay [5] is given as “binds”.

B3: MAVS, endogenous (cells of Supplementary Fig. S11a not named) (protein, UniProt Q8VCF0 1-503)
chain: MTFAEDKTYKYIRDNHSKFCCVDVLEILPYLSCLTASDQDRLRASYRQIGNRDTLWGLFNNLQRRPGWVEVFIRALQICELPGLADQVTRVYQSYLPPGTSLRSLEPLQLPDFPAAVSGPSAFAPGHNIPDHGLRETPSCPKPVQDTQPPESPVENSEQLLQTNSGAVARMSGGSLIPSPNQQALSPQPSREHQEQEPELGGAHAANVASVPIATYGPVSPTVSFQPLPRTALRTNLLSGVTVSALSADTSLSSSSTGSAFAKGAGDQAKAATCFSTTLTNSVTTSSVPSPRLVPVKTMSSKLPLSSKSTAAMTSTVLTNTAPSKLPSNSVYAGTVPSRVPASVAKAPANTIPPERNSKQAKETPEGPATKVTTGGNQTGPNSSIRSLHSGPEMSKPGVLVSQLDEPFSACSVDLAISPSSSLVSEPNHGPEENEYSSFRIQVDESPSADLLGSPEPLATQQPQEEEEHCASSMPWAKWLGATSALLAVFLAVMLYRSRRLAQ
In the case of B3, the binding entry in assay [6] is on record as “binds”.

B4: MAVS, endogenous in NMCMs (protein, UniProt Q8VCF0 1-503)
chain: MTFAEDKTYKYIRDNHSKFCCVDVLEILPYLSCLTASDQDRLRASYRQIGNRDTLWGLFNNLQRRPGWVEVFIRALQICELPGLADQVTRVYQSYLPPGTSLRSLEPLQLPDFPAAVSGPSAFAPGHNIPDHGLRETPSCPKPVQDTQPPESPVENSEQLLQTNSGAVARMSGGSLIPSPNQQALSPQPSREHQEQEPELGGAHAANVASVPIATYGPVSPTVSFQPLPRTALRTNLLSGVTVSALSADTSLSSSSTGSAFAKGAGDQAKAATCFSTTLTNSVTTSSVPSPRLVPVKTMSSKLPLSSKSTAAMTSTVLTNTAPSKLPSNSVYAGTVPSRVPASVAKAPANTIPPERNSKQAKETPEGPATKVTTGGNQTGPNSSIRSLHSGPEMSKPGVLVSQLDEPFSACSVDLAISPSSSLVSEPNHGPEENEYSSFRIQVDESPSADLLGSPEPLATQQPQEEEEHCASSMPWAKWLGATSALLAVFLAVMLYRSRRLAQ
For B4, the binding result in assay [7] is “binds”.

B5: Flag-tagged MARCH2 in NMCMs (enzyme, UniProt Q9P0N8 1-246)
chain: MTTGDCCHLPGSLCDCSGSPAFSKVVEATGLGPPQYVAQVTSRDGRLLSTVIRALDTPSDGPFCRICHEGANGECLLSPCGCTGTLGAVHKSCLEKWLSSSNTSYCELCHTEFAVEKRPRPLTEWLKDPGPRTEKRTLCCDMVCFLFITPLAAISGWLCLRGAQDHLRLHSQLEAVGLIALTIALFTIYVLWTLVSFRYHCQLYSEWRKTNQKVRLKIREADSPEGPQHSPLAAGLLKKVAEETPV
Regarding B5, the binding result in assay [8] is given as “binds”.
